Results are given in words; binding and its absence hold for the method and conditions named. In cells and extracts the contact can be indirect. A yes stands for co-enrichment or nearness to the bait. Other partners may have been found. A no says only that the protein was not detected with the bait.
Biological target: Flag-TurboID-Plk1 PBD MUTANT (H538A, K540A) (UniProt P53350)
Test: proximity labelling

Chains of the proteins cited; added tags and fusions are not shown.
UniProt Q9NQS7: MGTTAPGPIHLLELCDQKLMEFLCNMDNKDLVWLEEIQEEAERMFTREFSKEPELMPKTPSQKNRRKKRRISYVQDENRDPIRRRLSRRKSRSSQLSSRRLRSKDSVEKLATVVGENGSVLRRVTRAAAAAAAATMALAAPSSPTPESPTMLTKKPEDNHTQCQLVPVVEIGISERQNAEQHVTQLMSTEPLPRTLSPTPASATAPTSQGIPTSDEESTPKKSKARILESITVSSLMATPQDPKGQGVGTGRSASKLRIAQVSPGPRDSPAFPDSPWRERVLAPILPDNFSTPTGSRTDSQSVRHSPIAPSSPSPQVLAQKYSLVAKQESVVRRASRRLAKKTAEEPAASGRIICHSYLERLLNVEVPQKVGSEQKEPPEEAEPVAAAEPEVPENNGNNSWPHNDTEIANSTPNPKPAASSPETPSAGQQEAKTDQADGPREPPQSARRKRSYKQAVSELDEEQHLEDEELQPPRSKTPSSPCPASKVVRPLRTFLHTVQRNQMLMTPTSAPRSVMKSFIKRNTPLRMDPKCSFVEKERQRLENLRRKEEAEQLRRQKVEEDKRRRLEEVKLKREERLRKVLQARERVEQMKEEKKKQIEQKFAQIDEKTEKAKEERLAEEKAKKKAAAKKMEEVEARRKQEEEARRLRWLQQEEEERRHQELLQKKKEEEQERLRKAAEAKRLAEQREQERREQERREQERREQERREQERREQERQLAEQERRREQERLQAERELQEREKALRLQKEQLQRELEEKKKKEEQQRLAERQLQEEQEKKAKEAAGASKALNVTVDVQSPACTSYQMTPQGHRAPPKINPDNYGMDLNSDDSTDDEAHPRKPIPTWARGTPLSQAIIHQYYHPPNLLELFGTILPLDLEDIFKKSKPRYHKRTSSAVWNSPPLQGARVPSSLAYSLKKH

## INCENP (from UniProt Q9NQS7 1-918)
  binding: no binding
